Results are given in words; binding and its absence hold for the method and conditions named. Binding seen in cells or lysates may run through a third protein. Some results given as binding are weak or reduced against the parent protein; the word gives no strength.
How the values were obtained:
[1] = target: Galectin-3 (human (endogenous in TPC1)) (UniProt P17931); assay: co-IP; TPC1 cells treated with 0.5 or 1 uM DXR for 24 h; lysates in buffer with 1% CHAPS; immunoprecipitated with polyclonal anti-Bax or polyclonal anti-Gal-3 antibody and protein G Sepharose at 4°C, immunoblot; with 1% GCS-100/MCP pretreatment (3 h) plus DXR the interaction was suppressed significantly
[2] = target: mutant Gal-3 G182A (V5-tagged) (human) (UniProt P17931); assay: co-IP; 293 cells transiently transfected for 48 h with pcDNA6/V5 plasmids; lysates immunoprecipitated with anti-V5 antibody, immunoblot
[3] = target: Bax (human (endogenous in TPC1)) (UniProt Q07812); assay: co-IP; TPC1 cells treated with 0.5 or 1 uM DXR for 24 h; lysates in buffer with 1% CHAPS; immunoprecipitated with polyclonal anti-Bax or polyclonal anti-Gal-3 antibody and protein G Sepharose at 4°C, immunoblot; with 1% GCS-100/MCP pretreatment (3 h) plus DXR the interaction was suppressed significantly

Amino acid sequences for entries named in this document (tags omitted). A change or cut given only in a name is not applied to a line headed by its entry.
UniProt P17931: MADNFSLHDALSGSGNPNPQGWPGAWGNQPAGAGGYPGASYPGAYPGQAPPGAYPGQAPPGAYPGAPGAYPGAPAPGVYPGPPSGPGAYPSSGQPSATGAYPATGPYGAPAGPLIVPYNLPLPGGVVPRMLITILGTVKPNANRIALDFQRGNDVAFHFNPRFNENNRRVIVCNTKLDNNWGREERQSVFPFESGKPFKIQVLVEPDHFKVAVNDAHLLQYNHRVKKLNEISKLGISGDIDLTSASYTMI
UniProt Q07812: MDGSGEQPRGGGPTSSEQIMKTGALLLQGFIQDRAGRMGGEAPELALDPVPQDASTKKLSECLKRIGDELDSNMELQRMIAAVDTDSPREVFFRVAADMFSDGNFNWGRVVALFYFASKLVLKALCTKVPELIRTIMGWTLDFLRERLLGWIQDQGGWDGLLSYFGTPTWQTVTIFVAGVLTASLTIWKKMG

Bax (from UniProt Q07812 1-192)
binding [1]: binds

Bax (in 293 cells) (from UniProt Q07812 1-192)
binding [2]: binds weakly

Galectin-3 (from UniProt P17931 1-250)
binding [3]: binds

Reference: paper PMC4259453
